Drawing on paper PMC11443449, “NudCL2 is required for cytokinesis by stabilizing RCC2 with Hsp90 at the midbody” (Protein & Cell, 2024), this text covers binding for 2 substances.

Sequences of proteins named here, by UniProt entry; tags and fusion partners are left off.
UniProt Q9P258: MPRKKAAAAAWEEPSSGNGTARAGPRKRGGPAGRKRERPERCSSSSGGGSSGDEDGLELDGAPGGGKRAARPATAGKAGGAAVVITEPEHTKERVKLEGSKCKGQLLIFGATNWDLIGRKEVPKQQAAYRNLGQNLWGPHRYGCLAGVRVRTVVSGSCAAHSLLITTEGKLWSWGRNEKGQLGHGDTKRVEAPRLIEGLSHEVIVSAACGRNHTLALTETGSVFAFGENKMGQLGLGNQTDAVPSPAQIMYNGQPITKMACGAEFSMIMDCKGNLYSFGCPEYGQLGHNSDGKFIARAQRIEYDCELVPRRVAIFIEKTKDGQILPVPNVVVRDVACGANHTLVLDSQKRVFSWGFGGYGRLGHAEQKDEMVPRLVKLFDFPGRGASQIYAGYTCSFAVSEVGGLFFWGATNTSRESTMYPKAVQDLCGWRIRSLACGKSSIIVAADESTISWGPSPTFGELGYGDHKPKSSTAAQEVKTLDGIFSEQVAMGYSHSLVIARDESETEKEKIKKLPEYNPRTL

The target of experiment [1] is T1, NudCL2 expressed from a transfected vector (Figure 3P) (human) (UniProt Q8WVJ2).
T1 sequence: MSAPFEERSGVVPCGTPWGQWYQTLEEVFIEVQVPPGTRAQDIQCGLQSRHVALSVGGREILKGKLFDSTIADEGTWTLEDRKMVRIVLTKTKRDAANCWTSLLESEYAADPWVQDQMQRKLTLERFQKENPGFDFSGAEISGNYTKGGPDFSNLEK
As to the kind of experiment: co-IP; cells transfected with the indicated vectors; immunoprecipitation with anti-Flag antibody; Western blot. In general terms: Immunoblotting shows a protein as a band on a membrane.

Experiment [2] concerns the target T2, NudCL2 in cell lysate (human (in the paper's cell lines HEK-293, HEK-293T or HeLa; line not stated)) (UniProt Q8WVJ2).
T2 sequence: T1 sequence
As to the kind of experiment: co-IP; in vivo, NudC family members tested with Hsp90 and RCC2 (Fig. S10A-C); legend not shown.

Experiment [3] deals with T2, NudCL2 in cell lysate (human (in the paper's cell lines HEK-293, HEK-293T or HeLa; line not stated)). As to the kind of experiment: co-IP; cells lysed in TBSN buffer (20 mmol/L Tris pH 8.0, 150 mmol/L NaCl, 0.5% Nonidet P-40, 5 mmol/L EGTA, 1.5 mmol/L EDTA); immunoprecipitation with the indicated antibodies; Western blot.

No constants are given. Whether binding was seen depends on the method and setting. In cells and extracts the contact can be indirect. Some results given as binding are weak or reduced against the parent protein; the word gives no strength.

On to “RCC2 expressed from a transfected vector (Figure 3P) (from UniProt Q9P258 1-522)”, for which the binding entry in experiment [1] is listed as “binds”.

Regarding “RCC2 in cell lysate (from UniProt Q9P258 1-522)”, the binding result in experiment [2] and in experiment [3] was “binds” throughout.
